Results taken from PubChem BioAssay AID1794845 (National Center for Advancing Translational Sciences (NCATS), 2023).
The campaign covered roughly 6,900 compounds. Fewer than 10 were called active. Calls come from the whole dose curve; as a rule, active = well fitted curve in the direction sought with a large enough effect; inconclusive = small, poorly fitted or top-dose-only effect, or another doubt; inactive = no such curve, though single readings can be large or run the other way. Some of the results follow.

Protein sequences, listed by entry. Tags and fused reporters are not part of them. Lines headed by an entry give the natural chain unless they say otherwise; changes in a name come on top.
UniProt C7C422: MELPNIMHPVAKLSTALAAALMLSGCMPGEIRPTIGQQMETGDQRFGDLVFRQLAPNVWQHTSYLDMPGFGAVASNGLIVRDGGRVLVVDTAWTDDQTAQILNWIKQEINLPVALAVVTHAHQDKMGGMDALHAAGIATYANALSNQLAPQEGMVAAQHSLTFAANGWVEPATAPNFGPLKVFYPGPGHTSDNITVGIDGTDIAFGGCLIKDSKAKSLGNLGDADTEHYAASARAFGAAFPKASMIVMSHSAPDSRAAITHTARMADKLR

The molecules below were run against Metallo-beta-lactamase type 2 (Klebsiella pneumoniae) (UniProt C7C422) (assay: qHTS to identify inhibitors of the New Delhi Metallo-beta-lactamase (NDM): primary screen against the NCATS Gemini Collection). Conditions: NDM-1 enzyme, meropenem hydrolysis, absorbance 300 nm; at 38.4 µM (top of the series) unless noted.
Procedure, shortened: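 Meropenem hydrolysis (50 uM final) by 2 nM NDM-1 read as 300 nm absorbance after 30 min, following >30 min compound–enzyme preincubation in HEPES pH 7.0 with 1 uM ZnSO4 and 0.01% Tween20.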
Note: % of control where 0% means no effect.

Activity % (negative = inhibition), inactive:
COc1ccc(C(=O)N2C[C@@H]3C[C@H](C2)c2ccc(NS(=O)(=O)c4ccc(OC)cc4)c(=O)n2C3)cc1 -3.47%
Cc1ccc(NC(=O)O[C@@H]2CC[C@]3(C)C(CC[C@@H](O)[C@H]3CC(=O)NCc3ccccc3)[C@]2(C)CO)cc1 (some centres undefined) 4.33%
CN(Cc1cccnc1)Cc1ccccc1C(F)(F)F 22.7% [at 57.5 µM]
CN1CC(=O)N(CC(=O)N[C@@H]2COCC[C@@H]2OCc2cscn2)C1=O 4.43%
COCCn1ccc2c(C3=CCOCC3)nc(-c3cccc4[nH]ccc34)cc21 30.7% [at 57.5 µM]
CC(C)CC(NC(=O)c1ccc(=O)[nH]c1)c1nnc2n1CCNCC2 (centres undefined) 0.373%
COCCn1c(C)cnc1CCNS(=O)(=O)c1c(C)noc1C -3.98%
CC(NC1CCC2(CCNCC2)CC1)c1nc(-c2ccccn2)no1 (centres undefined) -11.7%
COc1ccc(C(=O)N[C@H](Cc2ccccn2)C2CC(O)C2)cc1F (some centres undefined) -9.19%
CNC(=O)c1cccn2nccc12 7.22% [at 77.1 µM]
CCNC(=O)[C@@H]1C[C@H](n2cc(CN(C)C(=O)c3cccc(C)c3C)nn2)CN1 -10.1%
N#Cc1ccc(C(=O)N2CCOC[C@H](Oc3ccc(C(F)(F)F)cc3)C2)cc1 60.1% [at 57.5 µM]
O=C1N(Cc2cccc(F)c2F)CCCC1(O)CNCc1ccccc1 (centres undefined) -0.81%
CCNC(=O)c1c(C)oc2c1CN(Cc1ccc(Br)o1)CC2 6.18%
COc1ccc(C)cc1NC(=O)N1CCCC1c1nncn1C1CCCC1 (centres undefined) 2.5%
COC(=O)[C@H](NC(=O)[C@@H]1[C@@H](NC(=O)Nc2cccc(OC)c2)CCN1C(=O)c1cnccn1)C(C)C 0.399%
O=C(C1CCCN1C(=O)C1CC1)N1CCCC(c2nc3ncccc3[nH]2)C1 (centres undefined) -1.31%
CCc1cnc(C2CCN(C(=O)OC(C)(C)C)CC2)[nH]1 27.6% [at 57.5 µM]
COc1cccc(C(=O)N2CCC3(CC2)CCN(CCc2ccccc2)c2ccccc2O3)c1 -1.69%
CCN1CCN(C(=O)CCC2CCN(S(=O)(=O)c3ccccc3)CC2)CC1 5.75%
CC(C)(C)c1coc([C@@H]2COCCN2Cc2ccc(C(=O)O)cc2)n1 -2.59% [at 57.5 µM]
Cn1ccc(NC(=O)[C@@H]2C[C@@H](c3ccc(F)cc3)N(CCOc3ccccc3)C2)n1 0.0325% [at 57.5 µM]
CCn1ccc(C(=O)N2CCc3nc(NC)nc(C(=O)N4CCCC4)c3C2)n1 8.64%
CCCc1nc(C(=O)N(C)Cc2cnn(-c3ccccc3C)c2)cs1 11.7%
Cc1nc(CN(C)C(=O)c2coc(COc3ccc(F)cc3Cl)n2)cs1 4.56%
COc1ccc(-c2noc([C@@H](C)NCc3ccc(F)cc3)c2C(=O)O)cc1 2.58% [at 57.5 µM]
O=C1CC2(CCN(S(=O)(=O)c3cccs3)CC2)Oc2ccccc21 -2.19%
O=C(NCC(=O)N1CCOCC1)c1cccc(-c2ccsc2)c1 -0.153% [at 57.5 µM]
COc1cccc(-c2ccc(NC(=O)C3CCCN3Cc3cnn(C)c3)cc2)c1 (centres undefined) 14.9%
Cc1noc(C)c1C(=O)N1CC(n2cc(COCc3ccccc3)nn2)C1 7.75%
O=C(NCC(O)CO)c1ccc(OC2CCN(CCc3ccccc3)CC2)cc1 (centres undefined) 1.84%
CCCn1ncnc1C(C)Nc1cc(C(C)C)nc2cc(C)nn12 (centres undefined) 13.3%
COc1cccc(CCC(=O)NC2CCN(c3cc(C(F)(F)F)nc(C)n3)CC2)c1 6.73%
CN1CCCCCCN(C(=O)c2cnccn2)[C@H]2CCC[C@H]2C1=O 6.25%
c1ccc(COC2CCN(c3nccc(-c4cccnc4)n3)CC2)nc1 20.1%
Cn1cc(CNC(=O)c2ccc(OC3CCN(S(C)(=O)=O)CC3)c(Cl)c2)cn1 -0.909%
COCC(=O)N(C)Cc1ccc(F)cc1 2.13% [at 77.1 µM]
O=C(c1ccsc1)N1CCC2(CCC2N2CCOCC2)CC1 (centres undefined) 8.65%
O=C(C1CC1)N1CCOc2ccc(CN3CCCC3)cc2C1 -0.277%
CCN1C(=O)CCc2cc(NC(=O)c3ccn(CC)n3)ccc21 11.6%
COC1CCN(c2cc(-c3ccsc3)nc3c(C)noc23)CC1 9.77% [at 57.5 µM]
Cc1nc(C2CC23CCN(C(=O)Nc2ccccc2F)CC3)no1 (centres undefined) -2.15%
CN1CCN(c2ccc(-c3noc([C@@H]4CCCN4Cc4ccccc4)n3)cn2)CC1 47.6% [at 57.5 µM]
COc1cccc([S+](=O)([O-])N2CCN(CCn3nc4n(c3=O)CCCC4)CC2)c1 -2.68%
CN1CCN(C(=O)c2cc(-c3ccsc3)nc3c2cnn3C)CC1 19.5% [at 57.5 µM]
COc1ccc(C(=O)N2CCC(N3C(=O)[C@H](OC)[C@@H]3c3ccncc3)CC2)c(OC)c1 5.5%
O=C(c1cc(-c2ccccc2)n[nH]1)N1CCc2c(nc(-c3ccccc3)[nH]c2=O)C1 6.31%
CCN(CC)C(=O)N1CCC(c2noc(COc3ccc(F)cc3)n2)C1 (centres undefined) 3.14%
Cc1cnc(C2CC2)n1CCNC(=O)NC1CCCCC1 8.29%
COc1ccc(OCc2cc(C(=O)NC(CO)C(C)C)no2)c2ccccc12 (centres undefined) 0.0207%
COc1ccc(Cl)cc1C(=O)N1CC(F)(F)C[C@H]1c1nc(C)no1 61.7%
CN(CCc1noc(C2CN(S(=O)(=O)c3ccccc3)C2)n1)C(=O)c1ccncc1 -0.943%
O=c1c2c(CO)c(-c3ccccc3)nn2ccn1Cc1cc(=O)n2ccccc2n1 7.66%
Cc1ccc(CN2CC[C@H](c3nc4ccc(C)cc4[nH]3)C2)cc1 6.51% [at 57.5 µM]

2 records drawn at random from the list so far, as already listed:
Activity % (negative = inhibition), inactive:
CN1CCN(C(=O)c2cc(-c3ccsc3)nc3c2cnn3C)CC1 19.5% [at 57.5 µM]
Cc1cnc(C2CC2)n1CCNC(=O)NC1CCCCC1 8.29%
